Measurements taken from PubChem BioAssay AID1434 (Sanford-Burnham Center for Chemical Genomics, 2008).
The list shows a part of the results.

By UniProt entry, the sequences of proteins in these tests, tags left out.
UniProt Q01196, whole entry, looked up: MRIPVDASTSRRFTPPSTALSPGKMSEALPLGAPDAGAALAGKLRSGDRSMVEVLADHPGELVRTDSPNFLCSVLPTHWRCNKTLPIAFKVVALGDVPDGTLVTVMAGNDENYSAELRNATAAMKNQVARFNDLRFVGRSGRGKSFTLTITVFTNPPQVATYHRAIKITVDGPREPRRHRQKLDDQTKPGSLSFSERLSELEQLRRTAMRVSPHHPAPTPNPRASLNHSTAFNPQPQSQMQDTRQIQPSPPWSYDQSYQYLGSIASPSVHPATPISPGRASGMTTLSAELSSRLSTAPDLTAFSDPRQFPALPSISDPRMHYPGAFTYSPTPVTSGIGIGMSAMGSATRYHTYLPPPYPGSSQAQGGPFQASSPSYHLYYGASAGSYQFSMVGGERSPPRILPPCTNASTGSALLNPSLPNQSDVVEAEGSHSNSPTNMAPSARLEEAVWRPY
UniProt Q13951, whole entry, looked up: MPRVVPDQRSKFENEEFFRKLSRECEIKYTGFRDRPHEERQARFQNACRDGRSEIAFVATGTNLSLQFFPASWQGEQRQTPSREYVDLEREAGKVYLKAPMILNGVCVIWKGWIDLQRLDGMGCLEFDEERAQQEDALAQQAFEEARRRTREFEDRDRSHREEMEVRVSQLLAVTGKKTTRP

Target: Runt-related transcription factor 1 (Homo sapiens) + Core-binding factor subunit beta (Homo sapiens) (UniProt Q01196+Q13951)
Test: disruptors of Runt domain/CBFb-SMMHC interaction – biochemical, FRET, Cerulean-Runt, Venus-CBFb-SMMHC, uHTS, primary screen (AID 1434);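 note: 0% = DMSO wells and 100% = wells with excess untagged CBFb-SMMHC; inhibitors lower the FRET ratio by blocking Runt binding to CBFb-SMMHC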
Settings: Cerulean-Runt/Venus-CBFb-SMMHC FRET ratio 530/480, 1 h; retest duplicate average; at 20 µM; stronger effect = higher value

Question: With `O=P(Nc1nccs1)(c1ccccc1)c1nc2ccccc2s1` (stereo unspecified) as the molecule, how does the inhibition read?
Answer: 64.2%
